Experimental data published in article PMC10590452.
Results are given in words; binding and its absence hold for the method and conditions named. Binding seen in cells or lysates may run through a third protein. Some entries that bind do so weakly or less than the wild type. Tags and fused reporters may be left off the sequences shown.

Amino acid sequences for entries named in this document (tags omitted).
UniProt P37802: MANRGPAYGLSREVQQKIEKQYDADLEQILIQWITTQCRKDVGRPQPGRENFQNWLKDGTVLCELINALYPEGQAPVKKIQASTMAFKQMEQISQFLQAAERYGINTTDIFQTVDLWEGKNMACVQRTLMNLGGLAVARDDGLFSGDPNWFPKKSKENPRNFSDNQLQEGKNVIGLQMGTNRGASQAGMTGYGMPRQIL
UniProt Q9WVA4: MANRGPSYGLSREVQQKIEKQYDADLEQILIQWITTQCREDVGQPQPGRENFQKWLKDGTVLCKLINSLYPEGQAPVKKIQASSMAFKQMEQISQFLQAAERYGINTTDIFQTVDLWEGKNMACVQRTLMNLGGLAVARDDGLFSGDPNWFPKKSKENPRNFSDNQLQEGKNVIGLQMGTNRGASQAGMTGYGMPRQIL

Experiments:
[1] = molecular target: T1, Fc-tagged human soluble TREM2 (Fc-sTREM2) (human) (UniProt Q9NZC2); experiment: pull-down; cell membrane proteins of SH-SY5Y cells or primary neurons incubated with purified Fc-sTREM2 or Fc, pulled down with protein A beads, blot for TG2; only the target purified
T1 sequence: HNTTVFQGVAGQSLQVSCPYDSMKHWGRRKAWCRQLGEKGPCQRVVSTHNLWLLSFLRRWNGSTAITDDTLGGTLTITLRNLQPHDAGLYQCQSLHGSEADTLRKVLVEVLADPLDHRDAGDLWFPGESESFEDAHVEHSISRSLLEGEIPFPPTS

[2] = molecular target: T2, GST-sTREM2 (1–158) (UniProt Q9NZC2); experiment: pull-down; GST pull-down; His-TG2 and GST-sTREM2 co-transfected into HEK293 cells
T2 sequence: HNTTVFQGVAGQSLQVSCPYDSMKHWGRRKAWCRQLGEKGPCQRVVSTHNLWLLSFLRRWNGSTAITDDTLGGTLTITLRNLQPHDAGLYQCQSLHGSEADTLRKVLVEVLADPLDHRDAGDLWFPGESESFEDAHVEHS

[3] = molecular target: T3, GST-TREM2 (77–105) (UniProt Q9NZC2); experiment: pull-down; GST pull-down; GST-tagged sTREM2 fragments from cell lysates held on glutathione agarose, washed with NP-40, incubated with lysate overexpressing His-TG2 overnight at 4 °C; only the target purified
T3 sequence: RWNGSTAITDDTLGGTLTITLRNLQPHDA

| Substance | binding [1] | binding [2] | binding [3] |
| --- | --- | --- | --- |
| transgelin-2 (TG2), endogenous in SH-SY5Y cells (from UniProt P37802 1-199) | binds | – | – |
| His-TG2 (from UniProt P37802 1-199) | – | binds | binds |
| transgelin-2 (TG2), endogenous in mouse primary neurons (from UniProt Q9WVA4 1-199) | binds | – | – |
